# Results from one PubChem assay

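Malaria parasite (P. falciparum) lines kept in red blood cells; parasite DNA is measured by SYBR Green fluorescence after lysis, 72 h after compound addition. Each compound was titrated across a series from about 0.000037 to 29 µM. The number is the fitted AC50, the concentration giving a half-maximal change in signal; a lower value means higher potency, whether the curve shows a decrease or an increase. Calls follow the curve class and fit quality: every row here is inconclusive, covering signal-raising curves and weak, poorly fitted, partial or highest-dose-only inhibition curves.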

Values are in µM. All entries here are filed as inconclusive. Only part of the assay is shown, chiefly results filed as inconclusive. Potencies fitted to partial, single-point or poorly fitting curves are rough. The first word of each remark tells which way the curve ran; it can be opposite to the aim of the assay.

| structure | tested on / at | potency (µM) | curve |
|---|---|---|---|
| `Cc1ccc(C(=O)Nc2ccc(S(=O)(=O)O)c3cc(S(=O)(=O)O)cc(S(=O)(=O)O)c23)cc1NC(=O)c1cccc(NC(=O)Nc2cccc(C(=O)Nc3cc(C(=O)Nc4ccc(S(=O)(=O)O)c5cc(S(=O)(=O)O)cc(S(=O)(=O)O)c45)ccc3C)c2)c1` | ATS95 | 3.981 | inhibitor, single point |
| `Cc1ccc(C(=O)Nc2ccc(S(=O)(=O)O)c3cc(S(=O)(=O)O)cc(S(=O)(=O)O)c23)cc1NC(=O)c1cccc(NC(=O)Nc2cccc(C(=O)Nc3cc(C(=O)Nc4ccc(S(=O)(=O)O)c5cc(S(=O)(=O)O)cc(S(=O)(=O)O)c45)ccc3C)c2)c1` | AS120 | 3.981 | inhibitor, single point |
| `Cc1ccc(C(=O)Nc2ccc(S(=O)(=O)O)c3cc(S(=O)(=O)O)cc(S(=O)(=O)O)c23)cc1NC(=O)c1cccc(NC(=O)Nc2cccc(C(=O)Nc3cc(C(=O)Nc4ccc(S(=O)(=O)O)c5cc(S(=O)(=O)O)cc(S(=O)(=O)O)c45)ccc3C)c2)c1` | TAB109 | 2.818 | inhibitor, single point |
| `Cc1ccc(C(=O)Nc2ccc(S(=O)(=O)O)c3cc(S(=O)(=O)O)cc(S(=O)(=O)O)c23)cc1NC(=O)c1cccc(NC(=O)Nc2cccc(C(=O)Nc3cc(C(=O)Nc4ccc(S(=O)(=O)O)c5cc(S(=O)(=O)O)cc(S(=O)(=O)O)c45)ccc3C)c2)c1` | AA1029 | 3.981 | inhibitor, single point |
| `CCCCC` | CP262 | 0.0005 | activator |
| `OCC1OC([S-])[C@H](O)C(O)C1O.[Au+]` (stereo partly drawn) | W2 | 13.46 | inhibitor, partial curve, poor fit |
| `OCC1OC([S-])[C@H](O)C(O)C1O.[Au+]` (stereo partly drawn) | 7G8 | 7.943 | inhibitor, partial curve |
| `Nc1nnc(-c2cccc(Cl)c2Cl)c(N)n1` | DIV30 | 0.0005 | inhibitor |
| `Cc1cccc(C)c1NC(=O)c1ccccc1C(=O)O` | CP256 | 1.585 | inhibitor, full curve, poor fit |
| `CC1(C)CCC(C)(C)c2cc(NC(=O)c3ccc(C(=O)O)cc3)ccc21` | 7G8 | 7.943 | inhibitor, partial curve, poor fit |
| `OCCN1CCN(CCCN2c3ccccc3Sc3ccc(C(F)(F)F)cc32)CC1` | FAB9 | 10 | inhibitor, single point |
| `OCCN1CCN(CCCN2c3ccccc3Sc3ccc(C(F)(F)F)cc32)CC1` | CP266 | 15.1 | inhibitor, partial curve |
| `OCCN1CCN(CCCN2c3ccccc3Sc3ccc(C(F)(F)F)cc32)CC1` | CP192 | 15.1 | inhibitor, single point |
| `OCCN1CCN(CCCN2c3ccccc3Sc3ccc(C(F)(F)F)cc32)CC1` | JCK | 15.85 | inhibitor, single point |
| `OCCN1CCN(CCCN2c3ccccc3Sc3ccc(C(F)(F)F)cc32)CC1` | PC49 | 5.012 | inhibitor, partial curve |
| `OCCN1CCN(CCCN2c3ccccc3Sc3ccc(C(F)(F)F)cc32)CC1` | CP297 | 7.569 | inhibitor, partial curve, poor fit |
| `N[C@H](Cc1c[nH]c2ccccc12)C(=O)O` | Dd2 | 17.78 | inhibitor, single point |
| `N[C@H](Cc1c[nH]c2ccccc12)C(=O)O` | 7G8 | 17.78 | inhibitor, single point |
| `N[C@H](Cc1c[nH]c2ccccc12)C(=O)O` | CP335 | 4.256 | inhibitor, single point |
| `O=C1c2ccccc2C(=O)C1c1ccccc1` | CP266 | 0.5725 | activator, partial curve, poor fit |
| `CC(C)(Oc1ccc(CCNC(=O)c2ccc(Cl)cc2)cc1)C(=O)O` | PC26 | 8.087 | inhibitor, partial curve, poor fit |
| `NC(=O)c1ccc[n+]([C@@H]2O[C@H](COP(=O)([O-])OP(=O)(O)OC[C@H]3O[C@@H](n4cnc5c(N)ncnc54)[C@@H](O)[C@@H]3O)[C@@H](O)[C@@H]2O)c1` | PC26 | 8.087 | activator, partial curve, poor fit |
| `O=C1CN(O)C(c2ccccc2)=c2cc(Cl)ccc2=N1` | 7G8 | 8.912 | inhibitor, partial curve, poor fit |
| `CCCC[N+]1(C)C2CC(OC(=O)C(CO)c3ccccc3)CC1C1OC12` (stereo not drawn) | CP203 | 0.0027 | activator, full curve, poor fit |
| `CO[C@@H](COC(N)=O)C1=C(N2CC2)C(=O)C(C)=C(N2CC2)C1=O` | JCK | 14.13 | inhibitor, partial curve, poor fit |
| `CO[C@@H](COC(N)=O)C1=C(N2CC2)C(=O)C(C)=C(N2CC2)C1=O` | CP262 | 1.51 | inhibitor, partial curve, poor fit |
| `CO[C@@H](COC(N)=O)C1=C(N2CC2)C(=O)C(C)=C(N2CC2)C1=O` | CP335 | 0.7569 | inhibitor, full curve, poor fit |
| `NC(=O)N[C@H]1NC(=O)NC1=O` | 3D7 | 1.585 | inhibitor, single point |
| `NC(=O)N[C@H]1NC(=O)NC1=O` | GB4 | 0.0003 | activator |
| `CCNC(=O)[C@@H]1CCCN1C(=O)[C@H](CCCN=C(N)N)NC(=O)[C@H](CC(C)C)NC(=O)[C@@H](Cc1c[nH]c2ccccc12)NC(=O)[C@H](Cc1ccc(O)cc1)NC(=O)[C@H](CO)NC(=O)[C@H](Cc1c[nH]c2ccccc12)NC(=O)[C@H](Cc1cnc[nH]1)NC(=O)[C@@H]1CCC(=O)N1` | CP262 | 1.901 | inhibitor, single point |
| `COc1ccc(C(=O)c2ccccc2O)c(O)c1` | CP217 | 10 | inhibitor, single point |
| `COc1ccc(C(=O)c2ccccc2O)c(O)c1` | N140 | 4.467 | inhibitor, single point |

Repeated from the top, 2 entries:

| structure | tested on / at | potency (µM) | curve |
|---|---|---|---|
| `Cc1ccc(C(=O)Nc2ccc(S(=O)(=O)O)c3cc(S(=O)(=O)O)cc(S(=O)(=O)O)c23)cc1NC(=O)c1cccc(NC(=O)Nc2cccc(C(=O)Nc3cc(C(=O)Nc4ccc(S(=O)(=O)O)c5cc(S(=O)(=O)O)cc(S(=O)(=O)O)c45)ccc3C)c2)c1` | ATS95 | 3.981 | inhibitor, single point |
| `Cc1ccc(C(=O)Nc2ccc(S(=O)(=O)O)c3cc(S(=O)(=O)O)cc(S(=O)(=O)O)c23)cc1NC(=O)c1cccc(NC(=O)Nc2cccc(C(=O)Nc3cc(C(=O)Nc4ccc(S(=O)(=O)O)c5cc(S(=O)(=O)O)cc(S(=O)(=O)O)c45)ccc3C)c2)c1` | AS120 | 3.981 | inhibitor, single point |

From PubChem BioAssay record AID504749 (NCATS, 2011).